Experimental data reported in the supplement of paper PMC4604168 (melanoma cell lines).
The list shows a part of the results. Repeats are few or missing, and single values can be far off.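 Imaging used 1,536-well plates; nuclei positive for cleaved PARP by antibody were divided by total DNA-stained nuclei to yield the apoptosis fraction. Doses for screening kept most cells viable, and cell lines differ markedly in resting and induced cleaved-PARP levels.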

Each compound was assayed on WM1716 (assay: cleaved PARP positive nuclei fraction relative to DMSO control; melanoma cells; higher = more apoptosis). Settings: library dose: low library concentration; 72 h.

Compound	cleaved PARP positive nuclei fraction [%]
CC[C@]1(O)C[C@H]2CN(CCc3c([nH]c4ccccc34)[C@@](C(=O)OC)(c3cc4c(cc3OC)N(C=O)[C@H]3[C@@](O)(C(=O)OC)[C@H](OC(C)=O)[C@]5(CC)C=CCN6CC[C@]43[C@@H]65)C2)C1 [vincristine] + O=C(Nc1ccccc1)c1cc([N+](=O)[O-])ccc1Cl [GW9662] (first compound 0.0001 µM, partner dose 2 µM)	46.4
O=C(Nc1cc(C(F)(F)F)cc(C(F)(F)F)c1)c1cc(Cl)ccc1O + Cn1cnc2c(F)c(Nc3ccc(Br)cc3Cl)c(C(=O)NOCCO)cc21 [selumetinib] (first compound 0.016 µM, partner dose 0.015 µM)	85.2
O=C(/C=C/c1cccnc1)NCCCCC1CCN(C(=O)c2ccccc2)CC1 + COc1cc2c(Oc3ccc4[nH]c(C)cc4c3F)ncnc2cc1OCCCN1CCCC1 [cediranib] (first compound 0.01 µM, partner dose 0.4 µM)	98.3
CCCCCCCCCCCCCCCCCCOP(=O)([O-])OC1CC[N+](C)(C)CC1 [Perifosine] + CNC(=O)c1cc(Oc2ccc(NC(=O)Nc3ccc(Cl)c(C(F)(F)F)c3)cc2)ccn1 [sorafenib] (first compound 0.4 µM, partner dose 0.4 µM)	68.7
CCCCCCCCCCCCCCCCCCOP(=O)([O-])OC1CC[N+](C)(C)CC1 [Perifosine] + OCCn1cc(-c2cnc3nnn(Cc4ccc5ncccc5c4)c3n2)cn1 [PF04217903] (first compound 0.4 µM, partner dose 1 µM)	142
CC[C@]1(O)C[C@H]2CN(CCc3c([nH]c4ccccc34)[C@@](C(=O)OC)(c3cc4c(cc3OC)N(C=O)[C@H]3[C@@](O)(C(=O)OC)[C@H](OC(C)=O)[C@]5(CC)C=CCN6CC[C@]43[C@@H]65)C2)C1 [vincristine] + c1cc(-c2cnn3cc(-c4ccc(OCCN5CCCCC5)cc4)cnc23)ccn1 [Dorsomorphin] (first compound 0.0001 µM, partner dose 0.4 µM)	260
O=C(Nc1cc(C(F)(F)F)cc(C(F)(F)F)c1)c1cc(Cl)ccc1O + CS(=O)(=O)c1ccc(C(=O)Nc2ccc(Cl)c(-c3ccccn3)c2)c(Cl)c1 [vismodegib] (first compound 0.016 µM, partner dose 1 µM)	63.8
N#CC[C@H](C1CCCC1)n1cc(-c2ncnc3[nH]ccc23)cn1 [ruxolitinib] + CN1CCN(c2ccc3nc(-c4c(N)c5c(F)cccc5[nH]c4=O)[nH]c3c2)CC1 [Dovitinib] (first compound 1 µM, partner dose 0.1 µM)	30
CCCCCCCCCCCCCCCCCCOP(=O)([O-])OC1CC[N+](C)(C)CC1 [Perifosine] + Nc1ncn([C@H]2C[C@H](O)[C@@H](CO)O2)c(=O)n1 [decitabine] (first compound 0.4 µM, partner dose 0.1 µM)	41.5
O=c1[nH]nc(Sc2ncc([N+](=O)[O-])s2)n1-c1ccc2c(c1)OCCO2 + O=S(=O)(c1ccccc1)N(CC(F)(F)F)c1ccc(C(O)(C(F)(F)F)C(F)(F)F)cc1 [T0901317] (first compound 0.2 µM, partner dose 1.4 µM)	120
Cc1cc(Nc2cc(N3CCN(C)CC3)nc(Sc3ccc(NC(=O)C4CC4)cc3)n2)n[nH]1 [Tozasertib] + N#Cc1c(O)c2c(-c3ccc(-c4ccccc4O)cc3)csc2[nH]c1=O [A769662] (first compound 0.006 µM, partner dose 2 µM)	64.6
Cc1cn(-c2cc(NC(=O)c3ccc(C)c(Nc4nccc(-c5cccnc5)n4)c3)cc(C(F)(F)F)c2)cn1 [nilotinib] + CCCCCCCCCCCC1=C(O)C(=O)C=C(O)C1=O [Embelin] (first compound 0.2 µM, partner dose 1.2 µM)	74.9
O=C(Nc1cc(C(F)(F)F)cc(C(F)(F)F)c1)c1cc(Cl)ccc1O + NC(=O)c1ccc(N(C(N)=O)c2c(F)cccc2F)nc1-c1ccc(F)cc1F [VX702] (first compound 0.016 µM, partner dose 0.4 µM)	61.2
CC[C@]1(O)C[C@H]2CN(CCc3c([nH]c4ccccc34)[C@@](C(=O)OC)(c3cc4c(cc3OC)N(C=O)[C@H]3[C@@](O)(C(=O)OC)[C@H](OC(C)=O)[C@]5(CC)C=CCN6CC[C@]43[C@@H]65)C2)C1 [vincristine] + COc1cc2ncnc(Nc3ccc(Oc4ccccc4)cc3)c2cc1OC [SrcI1] (first compound 0.0001 µM, partner dose 2 µM)	127
Cc1cn(-c2cc(NC(=O)c3ccc(C)c(Nc4nccc(-c5cccnc5)n4)c3)cc(C(F)(F)F)c2)cn1 [nilotinib] + CN1CCN(c2ccc3nc(-c4c(N)c5c(F)cccc5[nH]c4=O)[nH]c3c2)CC1 [Dovitinib] (first compound 0.2 µM, partner dose 0.1 µM)	25.3
Cc1cc(Nc2cc(N3CCN(C)CC3)nc(Sc3ccc(NC(=O)C4CC4)cc3)n2)n[nH]1 [Tozasertib] + O=c1[nH]nc(Sc2ncc([N+](=O)[O-])s2)n1-c1ccc2c(c1)OCCO2 [BI78D3] (first compound 0.006 µM, partner dose 0.2 µM)	40.3
COc1cc([C@@H]2c3cc4c(cc3[C@@H](O[C@@H]3O[C@@H]5CO[C@@H](C)O[C@H]5[C@H](O)[C@H]3O)[C@H]3COC(=O)[C@H]23)OCO4)cc(OC)c1O [etoposide] + C=C(c1ccc(C(=O)O)cc1)c1cc2c(cc1C)C(C)(C)CCC2(C)C [Bexarotene] (first compound 0.02 µM, partner dose 2 µM)	47.5
N#CC[C@H](C1CCCC1)n1cc(-c2ncnc3[nH]ccc23)cn1 [ruxolitinib] + Clc1ccc(Nc2nnc(Cc3ccncc3)c3ccccc23)cc1 [vatalanib] (first compound 1 µM, partner dose 2 µM)	37.3
N#CC[C@H](C1CCCC1)n1cc(-c2ncnc3[nH]ccc23)cn1 [ruxolitinib] + CC(=O)O[C@@]12CO[C@@H]1C[C@H](O)[C@@]1(C)C(=O)[C@H](O)C3=C(C)[C@@H](OC(=O)[C@H](O)[C@@H](NC(=O)OC(C)(C)C)c4ccccc4)C[C@@](O)([C@@H](OC(=O)c4ccccc4)[C@H]21)C3(C)C [Docetaxel] (first compound 1 µM, partner dose 0.0001 µM)	196
N#CC[C@H](C1CCCC1)n1cc(-c2ncnc3[nH]ccc23)cn1 [ruxolitinib] + C[C@]1(O)C[C@@H](c2nc(-c3ccc4ccc(-c5ccccc5)nc4c3)c3c(N)nccn32)C1 [OSI906] (first compound 1 µM, partner dose 0.4 µM)	35
Cc1cn(-c2cc(NC(=O)c3ccc(C)c(Nc4nccc(-c5cccnc5)n4)c3)cc(C(F)(F)F)c2)cn1 [nilotinib] + O=C(O)C(=O)Nc1sc2c(c1C(=O)O)CCNC2 [TCS401] (first compound 0.2 µM, partner dose 1.66667 µM)	49.4
Cc1cc(Nc2cc(N3CCN(C)CC3)nc(Sc3ccc(NC(=O)C4CC4)cc3)n2)n[nH]1 [Tozasertib] + CS(=O)(=O)CCNCc1ccc(-c2ccc3ncnc(Nc4ccc(OCc5cccc(F)c5)c(Cl)c4)c3c2)o1 [lapatinib] (first compound 0.006 µM, partner dose 0.8 µM)	96.6
CC[C@]1(O)C[C@H]2CN(CCc3c([nH]c4ccccc34)[C@@](C(=O)OC)(c3cc4c(cc3OC)N(C=O)[C@H]3[C@@](O)(C(=O)OC)[C@H](OC(C)=O)[C@]5(CC)C=CCN6CC[C@]43[C@@H]65)C2)C1 [vincristine] + COc1ccc(-c2ccc3c(N4CCOCC4)nc(N4C[C@@H](C)O[C@@H](C)C4)nc3n2)cc1CO [KU0063794] (first compound 0.0001 µM, partner dose 0.02 µM)	212
O=C(Nc1cc(C(F)(F)F)cc(C(F)(F)F)c1)c1cc(Cl)ccc1O + Cn1nnc2c(C(N)=O)ncn2c1=O [temozolomide] (first compound 0.016 µM, partner dose 2 µM)	90.9
CCCCCCCCCCCCCCCCCCOP(=O)([O-])OC1CC[N+](C)(C)CC1 [Perifosine] + Cn1cc(/C=C2\C(=O)Nc3cccnc32)c2ccccc21 [GW441756] (first compound 0.4 µM, partner dose 0.4 µM)	50.7
N#CC[C@H](C1CCCC1)n1cc(-c2ncnc3[nH]ccc23)cn1 [ruxolitinib] + CC1(C)CCC(c2ccc(Cl)cc2)=C(CN2CCN(c3ccc(C(=O)NS(=O)(=O)c4ccc(N[C@H](CCN5CCOCC5)CSc5ccccc5)c(S(=O)(=O)C(F)(F)F)c4)cc3)CC2)C1 [ABT263] (first compound 1 µM, partner dose 0.4 µM)	157
O=c1[nH]nc(Sc2ncc([N+](=O)[O-])s2)n1-c1ccc2c(c1)OCCO2 + COc1cc2ncnc(Nc3ccc(Oc4ccccc4)cc3)c2cc1OC [SrcI1] (first compound 0.2 µM, partner dose 2 µM)	286
CC[C@]1(O)C[C@H]2CN(CCc3c([nH]c4ccccc34)[C@@](C(=O)OC)(c3cc4c(cc3OC)N(C=O)[C@H]3[C@@](O)(C(=O)OC)[C@H](OC(C)=O)[C@]5(CC)C=CCN6CC[C@]43[C@@H]65)C2)C1 [vincristine] + CN(C)S(=O)(=O)c1ccc2c(c1)/C(=C/c1cc3c([nH]1)CCCC3)C(=O)N2 [SU6656] (first compound 0.0001 µM, partner dose 0.4 µM)	245

Reformatted bar-delimited: entries from further up
Compound | cleaved PARP positive nuclei fraction [%]
CC[C@]1(O)C[C@H]2CN(CCc3c([nH]c4ccccc34)[C@@](C(=O)OC)(c3cc4c(cc3OC)N(C=O)[C@H]3[C@@](O)(C(=O)OC)[C@H](OC(C)=O)[C@]5(CC)C=CCN6CC[C@]43[C@@H]65)C2)C1 [vincristine] + O=C(Nc1ccccc1)c1cc([N+](=O)[O-])ccc1Cl [GW9662] (first compound 0.0001 µM, partner dose 2 µM) | 46.4
CCCCCCCCCCCCCCCCCCOP(=O)([O-])OC1CC[N+](C)(C)CC1 [Perifosine] + CNC(=O)c1cc(Oc2ccc(NC(=O)Nc3ccc(Cl)c(C(F)(F)F)c3)cc2)ccn1 [sorafenib] (first compound 0.4 µM, partner dose 0.4 µM) | 68.7
CCCCCCCCCCCCCCCCCCOP(=O)([O-])OC1CC[N+](C)(C)CC1 [Perifosine] + OCCn1cc(-c2cnc3nnn(Cc4ccc5ncccc5c4)c3n2)cn1 [PF04217903] (first compound 0.4 µM, partner dose 1 µM) | 142
Cc1cn(-c2cc(NC(=O)c3ccc(C)c(Nc4nccc(-c5cccnc5)n4)c3)cc(C(F)(F)F)c2)cn1 [nilotinib] + CCCCCCCCCCCC1=C(O)C(=O)C=C(O)C1=O [Embelin] (first compound 0.2 µM, partner dose 1.2 µM) | 74.9
O=C(Nc1cc(C(F)(F)F)cc(C(F)(F)F)c1)c1cc(Cl)ccc1O + NC(=O)c1ccc(N(C(N)=O)c2c(F)cccc2F)nc1-c1ccc(F)cc1F [VX702] (first compound 0.016 µM, partner dose 0.4 µM) | 61.2
Cc1cn(-c2cc(NC(=O)c3ccc(C)c(Nc4nccc(-c5cccnc5)n4)c3)cc(C(F)(F)F)c2)cn1 [nilotinib] + CN1CCN(c2ccc3nc(-c4c(N)c5c(F)cccc5[nH]c4=O)[nH]c3c2)CC1 [Dovitinib] (first compound 0.2 µM, partner dose 0.1 µM) | 25.3
N#CC[C@H](C1CCCC1)n1cc(-c2ncnc3[nH]ccc23)cn1 [ruxolitinib] + C[C@]1(O)C[C@@H](c2nc(-c3ccc4ccc(-c5ccccc5)nc4c3)c3c(N)nccn32)C1 [OSI906] (first compound 1 µM, partner dose 0.4 µM) | 35
O=c1[nH]nc(Sc2ncc([N+](=O)[O-])s2)n1-c1ccc2c(c1)OCCO2 + COc1cc2ncnc(Nc3ccc(Oc4ccccc4)cc3)c2cc1OC [SrcI1] (first compound 0.2 µM, partner dose 2 µM) | 286
